Measurements published in publication PMC9380926.
No constants are given. Whether binding was seen depends on the method and setting. Some binding calls cover weakened binding; strength is not graded here.

Experiments:
[1] = target: curli fibrils (CsgA) purified from Salmonella enterica serovar Typhimurium biofilm cultures (Salmonella enterica serovar Typhimurium) (UniProt P0A1E7); assay: dynamic light scattering; purified curli preparations, ~1 mg/ml, filtered; Malvern Zetasizer Nano-ZS90, He-Ne laser 632 nm; both purified
[2] = target: curli fibrils (CsgA) purified from Salmonella enterica serovar Typhimurium biofilm cultures (Salmonella enterica serovar Typhimurium) (UniProt P0A1E7); assay: tryptophan fluorescence (steady state); purified curli preparations, ~1 mg/ml; excitation 295 nm, emission 310-420 nm; single tryptophan of CsgA as probe of aggregation; both purified
[3] = target: curli fibrils (CsgA) purified from Salmonella enterica serovar Typhimurium biofilm cultures (Salmonella enterica serovar Typhimurium) (UniProt P0A1E7); assay: thioflavin T fluorescence; purified curli preparations, ~1 mg/ml, 10 uM ThT; excitation 440 nm, emission 500 nm; both purified

Measured: binding

B1: curli fibrils (CsgA) purified from Salmonella enterica serovar Typhimurium biofilm cultures (protein, UniProt P0A1E7 21-151)
chain: GVVPQWGGGGNHNGGGNSSGPDSTLSIYQYGSANAALALQSDARKSETTITQSGYGNGADVGQGADNSTIELTQNGFRNNATIDQWNAKNSDITVGQYGGNNAALVNQTASDSSVMVRQVGFGNNATANQY
binds: [1] | [2] | [3]
